Test results published in the supplement of paper PMC11546906.
Structures can show the parent of a compound that is named as a salt. The list shows a part of the results. This data set is noisy: repeats of one test often differ as much as different tests do.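 Screen of FDA-approved drugs, each combined with colistin at one-eighth of its MIC, against a multidrug-resistant mcr-1-positive clinical E. coli isolate; growth read as OD600 after 24 h. Bacteria without drug were the growth control and plain broth the blank. A combination counted as active when OD600 fell below 0.2.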

What follows are compounds tested on Escherichia coli 42 (mcr-1-positive clinical isolate) (assay: OD600 after 24 h growth with compound plus colistin (absorbance units (OD600)); higher = more bacterial growth (less inhibition)). Settings: first compound 25 µM; colistin concentration 0.5 ug/mL; incubation time 24 h; 37 °C.

SMILES	OD600
O=NN(CCCl)C(=O)NC1CCCCC1 [Lomustine] + CCC(C)CCCC(=O)N[C@@H](CCN)C(=O)N[C@H](C(=O)N[C@@H](CCN)C(=O)N[C@H]1CCNC(=O)[C@H]([C@@H](C)O)NC(=O)[C@H](CCN)NC(=O)[C@H](CCN)NC(=O)[C@H](CC(C)C)NC(=O)[C@@H](CC(C)C)NC(=O)[C@H](CCN)NC1=O)[C@@H](C)O [colistin]	inactive: 0.904
Cn1cnc2c1c(=O)[nH]c(=O)n2C [Theobromine] + CCC(C)CCCC(=O)N[C@@H](CCN)C(=O)N[C@H](C(=O)N[C@@H](CCN)C(=O)N[C@H]1CCNC(=O)[C@H]([C@@H](C)O)NC(=O)[C@H](CCN)NC(=O)[C@H](CCN)NC(=O)[C@H](CC(C)C)NC(=O)[C@@H](CC(C)C)NC(=O)[C@H](CCN)NC1=O)[C@@H](C)O [colistin]	inactive: 0.952
CC(C)OC(=O)CCC/C=C\C[C@@H]1[C@@H](CC[C@@H](O)CCc2ccccc2)[C@H](O)C[C@@H]1O [Latanoprost] + CCC(C)CCCC(=O)N[C@@H](CCN)C(=O)N[C@H](C(=O)N[C@@H](CCN)C(=O)N[C@H]1CCNC(=O)[C@H]([C@@H](C)O)NC(=O)[C@H](CCN)NC(=O)[C@H](CCN)NC(=O)[C@H](CC(C)C)NC(=O)[C@@H](CC(C)C)NC(=O)[C@H](CCN)NC1=O)[C@@H](C)O [colistin]	inactive: 1.17
O=c1n(CCCN2CCN(c3cccc(Cl)c3)CC2)nc2ccccn12 [Trazodone hydrochloride] + CCC(C)CCCC(=O)N[C@@H](CCN)C(=O)N[C@H](C(=O)N[C@@H](CCN)C(=O)N[C@H]1CCNC(=O)[C@H]([C@@H](C)O)NC(=O)[C@H](CCN)NC(=O)[C@H](CCN)NC(=O)[C@H](CC(C)C)NC(=O)[C@@H](CC(C)C)NC(=O)[C@H](CCN)NC1=O)[C@@H](C)O [colistin]	inactive: 1.1
